The record followed here is paper PMC3887180.

By UniProt entry, the sequences of proteins in these tests, tags left out. Where a name states a change or a piece, a line headed by the entry shows the natural chain unless it says otherwise. Residues count along the entry.
UniProt P32121: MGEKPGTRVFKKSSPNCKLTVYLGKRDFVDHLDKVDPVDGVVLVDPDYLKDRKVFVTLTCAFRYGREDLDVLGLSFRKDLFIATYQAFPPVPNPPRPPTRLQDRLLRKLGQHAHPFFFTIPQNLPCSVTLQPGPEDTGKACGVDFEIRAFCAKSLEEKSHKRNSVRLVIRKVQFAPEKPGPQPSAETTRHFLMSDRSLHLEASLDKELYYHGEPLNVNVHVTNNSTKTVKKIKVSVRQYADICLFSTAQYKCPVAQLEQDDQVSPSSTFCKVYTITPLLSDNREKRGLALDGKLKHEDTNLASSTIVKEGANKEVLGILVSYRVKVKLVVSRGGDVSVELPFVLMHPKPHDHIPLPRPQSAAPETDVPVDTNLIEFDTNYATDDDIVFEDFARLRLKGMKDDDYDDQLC
FLAG-β-arrestin2 (amino acids 163–300): residues 163-300 of P32121
UniProt Q9BTU6: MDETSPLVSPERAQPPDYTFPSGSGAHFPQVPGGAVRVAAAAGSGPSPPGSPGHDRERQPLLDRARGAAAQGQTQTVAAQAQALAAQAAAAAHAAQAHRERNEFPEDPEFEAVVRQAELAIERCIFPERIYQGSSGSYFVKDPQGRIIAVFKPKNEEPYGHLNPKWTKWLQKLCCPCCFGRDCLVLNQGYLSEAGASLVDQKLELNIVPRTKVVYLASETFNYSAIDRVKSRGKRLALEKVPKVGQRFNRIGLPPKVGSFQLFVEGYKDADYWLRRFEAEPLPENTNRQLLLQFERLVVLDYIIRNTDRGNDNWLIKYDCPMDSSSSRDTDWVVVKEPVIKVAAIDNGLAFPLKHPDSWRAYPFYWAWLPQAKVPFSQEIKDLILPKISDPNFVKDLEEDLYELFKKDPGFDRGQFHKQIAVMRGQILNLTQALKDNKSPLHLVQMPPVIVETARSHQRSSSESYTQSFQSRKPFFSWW
UniProt O14986: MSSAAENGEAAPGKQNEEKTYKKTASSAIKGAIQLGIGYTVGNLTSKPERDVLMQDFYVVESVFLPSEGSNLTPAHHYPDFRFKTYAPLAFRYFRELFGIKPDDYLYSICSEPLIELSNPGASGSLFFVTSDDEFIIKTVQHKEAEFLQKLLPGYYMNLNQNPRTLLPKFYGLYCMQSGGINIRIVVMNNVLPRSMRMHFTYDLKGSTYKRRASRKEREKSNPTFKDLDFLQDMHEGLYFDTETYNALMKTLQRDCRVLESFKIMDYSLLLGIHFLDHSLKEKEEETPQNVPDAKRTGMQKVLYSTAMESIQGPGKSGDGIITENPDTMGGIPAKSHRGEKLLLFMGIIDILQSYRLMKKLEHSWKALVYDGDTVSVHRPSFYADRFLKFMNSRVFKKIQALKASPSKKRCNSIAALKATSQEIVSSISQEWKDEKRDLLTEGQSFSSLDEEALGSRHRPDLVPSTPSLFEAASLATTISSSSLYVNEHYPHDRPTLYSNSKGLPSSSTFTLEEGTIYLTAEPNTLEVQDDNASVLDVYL

The target of experiment [1] is FLAG-β-arrestin2 (UniProt P32121). The experiment is described as follows: co-IP; overexpressed tagged proteins in HEK293T with or without co-expressed Dvl1, Dvl2 or Dvl3 as competitor; Nonidet P-40 lysis buffer, 4 °C, anti-tag immunoprecipitation; Western blot. On the technique in general: Immunoblotting shows a protein as a band on a membrane.
For experiment [2] the target is unchanged. The experiment is described as follows: co-IP; overexpressed tagged proteins in HEK293T; Nonidet P-40 lysis buffer (50 mM Tris pH 7.4, 150 mM NaCl, 1 mM EDTA, 0.5% Nonidet P-40), 4 °C, anti-tag antibody and protein G-Sepharose overnight, six washes; Western blot; in Fig. 7A, B with PI4KIIα siRNA or overexpressed PI4KIIα or PIP5KIβ.
Experiment [3] has the same target. In words: co-IP; overexpressed tagged proteins in HEK293T with or without co-expressed Dvl1, Dvl2 or Dvl3 as competitor; Nonidet P-40 lysis buffer, 4 °C, anti-tag immunoprecipitation; Western blot. This is another data set of the same source.
Experiment [4] concerns the target endogenous β-arrestin2 (NB4 cells) (human (endogenous in NB4)) (UniProt P32121). The experiment is described as follows: co-IP; endogenous proteins of NB4 cells (cytoplasmic fraction in Fig. 6C; cells with Wnt3a or control CM for 2 h); precipitation with anti-β-arrestin antibodies A1CT and A2CT, protein G-Sepharose, 4 °C; Western blot.
Experiment [5] concerns the target HA-β-arrestin2 (UniProt P32121). The experiment is described as follows: co-IP; overexpressed tagged proteins in HEK293T; Nonidet P-40 lysis buffer (50 mM Tris pH 7.4, 150 mM NaCl, 1 mM EDTA, 0.5% Nonidet P-40), 4 °C, anti-tag antibody and protein G-Sepharose overnight, six washes; Western blot; in Fig. 7A, B with PI4KIIα siRNA or overexpressed PI4KIIα or PIP5KIβ.

In experiment [6] the target is FLAG-β-arrestin2 (amino acids 163–300) (UniProt P32121). Described as above.
Experiment [7] deals with FLAG-β-arrestin2 (UniProt P32121). The description is as above. The source holds these as a separate data set.
The target in experiment [8] is HA-β-arrestin2 (UniProt P32121). The experiment is described as follows: co-IP; overexpressed tagged proteins in HEK293T with or without co-expressed Dvl1, Dvl2 or Dvl3 as competitor; Nonidet P-40 lysis buffer, 4 °C, anti-tag immunoprecipitation; Western blot.

Results are given in words; binding and its absence hold for the method and conditions named. Binding seen in cells or lysates may run through a third protein. Some binding calls cover weakened binding; strength is not graded here. For some of these results: Tags and fused reporters may be left off the sequences shown.

Turning to “HA-PI4KIIα (from UniProt Q9BTU6 1-479) (enzyme)”, the values for the binding result with FLAG-β-arrestin2 [1], in the experiment with FLAG-β-arrestin2 [2] and with FLAG-β-arrestin2 [3] were “binds”, “binds” and “no binding (condition: with overexpressed Dvl3)”, respectively. As to “HA-PIP5KIβ (from UniProt O14986 1-540) (enzyme)”, the binding entry in the experiment with FLAG-β-arrestin2 [1] is “binds”; in the experiment with FLAG-β-arrestin2 [2], “binds”; with FLAG-β-arrestin2 [3], “no binding (condition: with overexpressed Dvl3)”. On to “endogenous PI4KIIα (NB4 cells) (from UniProt Q9BTU6 1-479) (enzyme)”, for which, in experiment [4], the binding entry is listed as “binds”.

B1: FLAG-Amer1 (protein, UniProt Q5JTC6 1-1135)
chain: METQKDEAAQAKGAAASGSTREQTAEKGAKNKAAEATEGPTSEPSSSGPGRLKKTAMKLFGGKKGICTLPSFFGGGRSKGSGKGSSKKGLSKSKTHDGLSEAAHGPEDVVSEGTGFSLPLPELPCQFPSSQSAHGALETGSRCKTSVAGATEKAVAEKFPSMPKPKKGLKGFFSSIRRHRKSKVTGAEQSEPGAKGPERVRARPHEHVSSAPQVPCFEETFQAPRKENANPQDAPGPKVSPTPEPSPPATEKMACKDPEKPMEACASAHVQPKPAPEASSLEEPHSPETGEKVVAGEVNPPNGPVGDPLSLLFGDVTSLKSFDSLTGCGDIIAEQDMDSMTDSMASGGQRANRDGTKRSSCLVTYQGGGEEMALPDDDDEEEEEEEEVELEEEEEEVKEEEEDDDLEYLWETAQMYPRPNMNLGYHPTTSPGHHGYMLLDPVRSYPGLAPGELLTPQSDQQESAPNSDEGYYDSTTPGFEDDSGEALGLVRRDCLPRDSYSGDALYEFYEPDDSLENSPPGDDCLYDLHGRSSEMFDPFLNFEPFLSSRPPGAMETEEERLVTIQKQLLYWELRREQLEAQEARAREAHAREAHAREAYTREAYGREAYAREAHTWEAHGREARTREAQAREVRCRETQVRETQARQEKPVLEYQMRPLGPSVMGLAAGVSGTSQISHRGITSAFPTTASSEPDWRDFRPLEKRYEGTCSKKDQSTCLMQLFQSDAMFEPDMQEANFGGSPRRAYPTYSPPEDPEEEEVEKEGNATVSFSQALVEFTSNGNLFSSMSCSSDSDSSFTQNLPELPPMVTFDIADVERDGEGKCEENPEFHNDEDLAASLEAFELGYYHKHAFNNYHSRFYQGLPWGVSSLPRYLGLPGLHPRPPPAAMALNRRSRSLDTAETLEMELSNSHLVQGYLESDELQAQQEDSDEEDEEEEEGEWSRDSPLSLYTEPPGAYDWPAWAPCPLPVGPGPAWISPNQLDRPSSQSPYRQATCCIPPMTMSISLSVPESRAPGESGPQLARPSHLHLPMGPCYNLQPQASQSMRARPRDVLLPVDEPSCSSSSGGFSPSPLPQAKPVGITHGIPQLPRVRPEHPQPQPTHYGPSSLDLSKERAEQGASLATSYSSTAMNGNLAK
In the case of B1, in the experiment with HA-β-arrestin2 [5], the binding result is “binds”.

B2: full-length Amer1 (Fig. 1D, Fig. 7B; tag not told for these panels) (protein, UniProt Q5JTC6 1-1135)
chain: B1 chain
As for B2, the binding entry (in experiment [6]; with FLAG-β-arrestin2 [7]) was “binds” each time.

B3: EGFP-Amer1 (amino acids 942–1135) (domain or fragment, UniProt Q5JTC6 942-1135)
chain: RDSPLSLYTEPPGAYDWPAWAPCPLPVGPGPAWISPNQLDRPSSQSPYRQATCCIPPMTMSISLSVPESRAPGESGPQLARPSHLHLPMGPCYNLQPQASQSMRARPRDVLLPVDEPSCSSSSGGFSPSPLPQAKPVGITHGIPQLPRVRPEHPQPQPTHYGPSSLDLSKERAEQGASLATSYSSTAMNGNLAK
Take B3: the binding entry in experiment [6] is “binds”.

B4: EGFP-mDvl2 (protein, UniProt Q60838 1-736)
chain: MAGSSAGGGGVGETKVIYHLDEEETPYLVKIPVPAERITLGDFKSVLQRPAGAKYFFKSMDQDFGVVKEEISDDNARLPCFNGRVVSWLVSSDTPQPEVAPPAHESRTELVPPPPPLPPLPPERTSGIGDSRPPSFHPNVSSSHENLEPETETESVVSLRRDRPRRRDSSEHGAGGHRPGGPSRLERHLAGYESSSTLMTSELESTSLGDSDEDDTMSRFSSSTEQSSASRLLKRHRRRRKQRPPRMERTSSFSSVTDSTMSLNIITVTLNMEKYNFLGISIVGQSNERGDGGIYIGSIMKGGAVAADGRIEPGDMLLQVNDMNFENMSNDDAVRVLRDIVHKPGPIVLTVAKCWDPSPQAYFTLPRNEPIQPIDPAAWVSHSAALTGAFPAYPGSSSMSTITSGSSLPDGCEGRGLSVHMDMASVTKAMAAPESGLEVRDRMWLKITIPNAFLGSDVVDWLYHHVEGFPERREARKYASGLLKAGLIRHTVNKITFSEQCYYVFGDLSGGCESYLVNLSLNDNDGSSGASDQDTLAPLPGATPWPLLPTFSYQYPAPHPYSPQPPPYHELSSYTYGGGSASSQHSEGSRSSGSTRSDGGAGRTGRPEERAPESKSGSGSESELSSRGGSLRRGGEPGGTGDGGPPPSRGSTGAPPNLRALPGLHPYGAPSGMALPYNPMMVVMMPPPPPPVSTAVQPPGAPPVRDLGSVPPELTASRQSFHMAMGNPSEFFVDVM
Turning to B4, the binding entry with HA-β-arrestin2 [8] is given as “binds”.

B5: FLAG-hDvl1 (protein, UniProt O14640 1-695)
chain: MAETKIIYHMDEEETPYLVKLPVAPERVTLADFKNVLSNRPVHAYKFFFKSMDQDFGVVKEEIFDDNAKLPCFNGRVVSWLVLAEGAHSDAGSQGTDSHTDLPPPLERTGGIGDSRPPSFHPNVASSRDGMDNETGTESMVSHRRERARRRNREEAARTNGHPRGDRRRDVGLPPDSASTALSSELESSSFVDSDEDGSTSRLSSSTEQSTSSRLIRKHKRRRRKQRLRQADRASSFSSITDSTMSLNIVTVTLNMERHHFLGISIVGQSNDRGDGGIYIGSIMKGGAVAADGRIEPGDMLLQVNDVNFENMSNDDAVRVLREIVSQTGPISLTVAKCWDPTPRSYFTVPRADPVRPIDPAAWLSHTAALTGALPRYGTSPCSSAVTRTSSSSLTSSVPGAPQLEEAPLTVKSDMSAVVRVMQLPDSGLEIRDRMWLKITIANAVIGADVVDWLYTHVEGFKERREARKYASSLLKHGFLRHTVNKITFSEQCYYVFGDLCSNLATLNLNSGSSGTSDQDTLAPLPHPAAPWPLGQGYPYQYPGPPPCFPPAYQDPGFSYGSGSTGSQQSEGSKSSGSTRSSRRAPGREKERRAAGAGGSGSESDHTAPSGVGSSWRERPAGQLSRGSSPRSQASATAPGLPPPHPTTKAYTVVGGPPGGPPVRELAAVPPELTGSRQSFQKAMGNPCEFFVDIM
As for B5, in the experiment with HA-β-arrestin2 [8], the binding result was “binds”.
